Data on 1 compound can be found in patent publication US20160102073A1, “2-HYDROXYMETHYL-SUBSTITUTED OREXIN RECEPTOR ANTAGONISTS” (MERCK SHARP & DOHME CORP., priority 2013, published 2016).

Sequences of proteins named here, by UniProt entry; tags and fusion partners are left off.
UniProt O43614, whole entry: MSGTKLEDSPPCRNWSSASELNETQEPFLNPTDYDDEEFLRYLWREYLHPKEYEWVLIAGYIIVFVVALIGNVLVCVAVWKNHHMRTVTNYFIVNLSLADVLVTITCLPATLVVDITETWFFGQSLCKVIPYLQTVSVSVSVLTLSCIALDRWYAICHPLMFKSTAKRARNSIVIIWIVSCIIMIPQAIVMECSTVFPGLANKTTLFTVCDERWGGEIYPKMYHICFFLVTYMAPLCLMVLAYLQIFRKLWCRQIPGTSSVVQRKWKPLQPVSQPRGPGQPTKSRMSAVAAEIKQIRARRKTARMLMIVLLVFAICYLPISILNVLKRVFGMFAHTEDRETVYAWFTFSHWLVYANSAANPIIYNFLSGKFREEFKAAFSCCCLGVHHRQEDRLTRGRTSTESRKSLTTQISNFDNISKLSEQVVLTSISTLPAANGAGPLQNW
UniProt O43613, whole entry: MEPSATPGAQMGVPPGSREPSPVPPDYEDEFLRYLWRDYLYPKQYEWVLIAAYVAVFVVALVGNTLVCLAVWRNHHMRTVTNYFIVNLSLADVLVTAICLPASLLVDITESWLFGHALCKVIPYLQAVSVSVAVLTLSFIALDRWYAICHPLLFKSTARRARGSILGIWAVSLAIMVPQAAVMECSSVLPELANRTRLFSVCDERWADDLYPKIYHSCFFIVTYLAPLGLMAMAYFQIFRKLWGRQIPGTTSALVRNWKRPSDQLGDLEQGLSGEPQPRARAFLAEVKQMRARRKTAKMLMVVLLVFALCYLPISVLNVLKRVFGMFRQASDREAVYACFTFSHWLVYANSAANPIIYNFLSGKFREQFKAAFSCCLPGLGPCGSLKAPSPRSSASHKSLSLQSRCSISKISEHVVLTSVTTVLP

The structures given here were assigned with low confidence; some may be wrong.

Experiment [1] deals with human orexin-2 receptor (hOX2R) (Homo sapiens, UniProt O43614). As to the kind of experiment: FLIPR Ca2+ Flux Assay, CHO cells expressing hOX2R. The format is cell-based. The following applies: read-out: hOX2R FLIPR IC50, agonist 70 pM Ala-6,12 orexin-A. Here is the method: The utility of the compounds in accordance with the present invention as orexin receptor OX1R and/or OX2R antagonists may be readily determined without undue experimentation by methodology well known in the art, including the “FLIPR Ca^2+ Flux Assay” (Okumura et al., Biochem. Biophys. Res. Comm. 280:976-981, 2001). In a typical experiment the OX1 and OX2 receptor antagonistic activity of the compounds of the present invention was determined in accordance with the following experimental method. […] Within the Fluorescent Imaging Plate Reader (FLIPR, Molecular Devices), test compounds are added to the plate in a volume of 25 μl, incubated for 5 min and finally 25 μl of agonist is added. Fluorescence is measured for each well at 1 second intervals for 5 minutes and the height of each fluorescence peak is compared to the height of the fluorescence peak induced by 70 pM Ala-6,12 orexin-A with buffer in place of antagonist. […] Alternatively, compound potency can be assessed by a radioligand binding assay (described in Bergman et. al. Bioorg. Med. Chem. Lett. 2008, 18, 1425-1430) in which the inhibition constant (Ki) is determined in membranes prepared from CHO cells expressing either the OX1 or OX2 receptor. The intrinsic orexin receptor antagonist activity of a compound which may be used in the present invention may be determined by these assays. […]
On the technique in general: Calcium flux is commonly read through the fluorescence of an indicator in the cells.

The target in experiment [2] is human orexin-1 receptor (hOX1R) (Homo sapiens, UniProt O43613). As to the kind of experiment: FLIPR Ca2+ Flux Assay, CHO cells expressing hOX1R. Format: cell-based. The following applies: read-out: hOX1R FLIPR IC50, agonist 70 pM Ala-6,12 orexin-A.

What is called IC50 is the point on the concentration scale where inhibition reaches its midpoint.

Regarding `C[C@@H]1CC[C@@H](Oc2ncccc2C(C)(C)O)CN1C(=O)c1ccc(F)cc1-c1ncccn1`, the concentration for half-maximal inhibition (IC50) in experiment [1] came out at 0.094 µM; in experiment [2], 0.55 µM.
